# Experimental data taken from PubChem BioAssay AID588463 (National Center for Advancing Translational Sciences (NCATS), 2011).
# Among all 1,200 compounds or so, about 15 (1%) were called active. About 7% were inconclusive and are not listed. Calls follow the shape of the dose curve; as a rule, active = well fitted activation curve with a large enough effect; inconclusive = small, poorly fitted or top-dose-only effect; inactive = flat fitted curve, though single readings scatter. The list shows a part of the results.
# Target: Beta-2 adrenergic receptor (Homo sapiens) (UniProt P07550)
# Experiment: qHTS assay of beta-arrestin-biased ligands of beta2-adrenergic receptor: Hit Validation;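 also: plate controls were DMSO for no effect and maximal isoproterenol or metaproterenol response for full effect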
# Conditions: cell-based beta-arrestin recruitment to beta2AR; Potency: activation; series mostly up to 46.1 µM; activation: at the top concentration
# Outline: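 Luminescent tTA-driven luciferase reporter in Tango cells, read after 18 h at 37 °C with compound and 15 min with substrate mix (0.15 mM ATP, 0.44 mM D-luciferin, final). Concentration-response fits categorized by curve class.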
row,Compound,activation
1,O=C1NC(c2ccc(-c3ccccc3[N+](=O)[O-])o2)C(C(=O)c2ccc(F)cc2)C(O)(C(F)(F)F)N1 (stereo not given),inactive: -4.07%
2,C=CCNC(=S)N/N=C/c1ccc(C(F)(F)F)cc1,inactive: -2.41%
3,C=CCNC(=S)N/N=C/c1ccc(-c2cc(Cl)ccc2Cl)o1,inactive: -2.16%
4,COc1ccccc1/C=N/NC(=S)Nc1cccnc1,inactive: -1.07%
5,COc1cc(OC)c(C2Nc3cccc4cccc(c34)N2)c(OC)c1,inactive: -5.32%
6,COC(=O)NNC(=O)COc1ccc2ccccc2c1Br,inactive: -0.79%
7,C/C(=N/NC(N)=S)c1ccc(Br)s1,inactive: 0.669%
8,Cc1onc(-c2ccccc2)c1C(=O)N/N=C/C(Br)=C/c1ccccc1,inactive: -2.07%
9,O=C(Cc1cccs1)N/N=C/C=C/c1ccco1,inactive: -1.18%
10,COc1ccc(CCNc2nc(-c3ccccn3)cs2)cc1OC,inactive: 3.08%
11,CCCCCCC[C@@H](C/C=C/CCC(=O)N(C)C/C(=C/Cl)C/C(=C\C(=O)N1CC(OC)=CC1=O)OC)OC,inactive: -2.85%
12,O=C1c2ccccc2CN1c1ccccc1,inactive: -3.12%
13,C=CCNC(=S)NNc1ncnc2sc3c(c12)CC(C)(C)OC3,inactive: -4.28%
14,CCCCC(=O)/C=C/n1c(=S)oc2ccccc21,inactive: -2.45%
15,COCC(=O)N1CCC(Oc2ccc(C(=O)NCc3cc(C)no3)cc2)CC1,inactive: -2.69%
16,COc1ccc(-c2cc(C(F)(F)F)nc(SCC(=O)NCc3ccco3)n2)cc1OC,inactive: -1.26%
17,COc1ccc(NC(=S)Nc2cccc(C)n2)cc1,inactive: -2.31%
18,O=C(Oc1c(CN2CCOCC2)cc(Cl)c2cccnc12)c1ccccc1Cl,inactive: 0.917%
19,Cc1cc(/C=C(\C#N)C(=O)NC2CCCCCC2)c(C)[nH]1,inactive: -1.99%
20,CC1CCCC/C1=N\NC(=S)NCCc1ccccc1 (stereo not given),inactive: -2.85%
21,O=C1OC(c2ccccc2)=C/C1=C\N1CCOCC1,inactive: -2.64%
22,Fc1ccccc1/C=N/Nc1ncnc2ccccc12,inactive: -1.82%
23,CN(C)c1nc(N/N=C/c2ccccc2O)nc(Nc2ccc(F)cc2)n1,inactive: -2.49%
24,CCc1cc(C(=O)N(CC(C)C)c2c(N)n(Cc3ccccc3)c(=O)[nH]c2=O)sc1C,inactive: -3.09%
25,CSC1=C(C#N)C(c2ccccc2Cl)C2=C(N1)c1ccccc1C2=O (stereo not given),inactive: -2.57%

# An excerpt of the results above, as a working copy:
row,Compound,activation
13,C=CCNC(=S)NNc1ncnc2sc3c(c12)CC(C)(C)OC3,inactive: -4.28%
14,CCCCC(=O)/C=C/n1c(=S)oc2ccccc21,inactive: -2.45%

# Two compounds drawn at random from the list so far, as already listed:
row,Compound,activation
17,COc1ccc(NC(=S)Nc2cccc(C)n2)cc1,inactive: -2.31%
11,CCCCCCC[C@@H](C/C=C/CCC(=O)N(C)C/C(=C/Cl)C/C(=C\C(=O)N1CC(OC)=CC1=O)OC)OC,inactive: -2.85%

# Additional entries:

row,Compound,activation
1,CN1CCC(C2(O)c3ccccc3CSc3sccc32)CC1 (stereo not given),inactive: -1.61%
2,NC(=S)N/N=C/c1ccc(-c2ccc(Cl)c(Cl)c2)o1,inactive: -5.57%
3,S=C(Nc1nc2c(s1)CCCC2)NC1CC1,inactive: -1.69%
4,Oc1ccc(N=Nc2nccs2)c(O)c1,inactive: -2.66%
5,CCC(Sc1nc(C)cc(=O)[nH]1)C(=O)Nc1nc2c(s1)CCCC2 (stereo not given),inactive: -0.225%
6,N#C/C(=C\c1cccc(O)c1)c1nc2ccccc2o1,inactive: 0.103%
7,CN(C)/C=C1\N=C(c2cccnc2Oc2ccc(Cl)cc2)OC1=O,inactive: -7.85%
8,Cc1cc(N)n(Cc2cccs2)n1,inactive: -0.484%
9,C=CCNC(=S)NC(=O)c1ccc(C)c(Br)c1,inactive: -1.73%
10,NC(=S)N/N=C/c1ncc(C(F)(F)F)cc1Cl,inactive: -2.53%
11,CCCc1cc(SCC(=O)Nc2c(C)n(C)n(-c3ccccc3)c2=O)n2c(nc3ccccc32)c1C#N,inactive: 2.95%
12,COCCNc1c(-c2cc3ccc(C)c(C)c3[nH]c2=O)nc2ccccn12,inactive: -2.26%
13,C/C(CC(C)(C)C1CCCCC1)=N\NC(N)=S,inactive: -3.33%
14,Cc1ccc2[nH]c(=S)cc(C)c2c1,inactive: -2.35%
15,CC(C)(C)NNC(=S)Nc1cccc(F)c1,inactive: -2.61%
16,CN(Cc1ccccc1)C(=O)N[C@@H](Cc1ccccc1)C(=O)O,inactive: -2.37%
17,O=C(CNc1cccc(Cl)c1)c1ccc(Br)cc1,inactive: -2.41%
18,Cc1ccc(C2(C)NC(=O)N(CC(=O)c3ccc4c(c3)OCCO4)C2=O)cc1 (stereo not given),inactive: 4.6%
19,COc1ccc(/C(C)=N/Nc2nc3ccccc3nc2C)cc1OC,inactive: -2.66%
20,COc1cc(/C=N/NC(=O)CCn2c3ccccc3c3ccccc32)ccc1O,inactive: -0.35%
21,COC(=O)c1c(C)[nH]c(C(=O)OCC(=O)c2ccc(C)s2)c1C,inactive: -0.963%
22,C/C(=N\Nc1ncc(Cl)cc1Cl)c1ccc(N2CCOCC2)cc1,inactive: -1.87%
23,CCc1ccc2c(COC(=O)C3CSC4(C)CCC(=O)N34)cc(=O)oc2c1 (stereo not given),inactive: -3.4%
24,NNC(=S)NC1CCCCC1,inactive: -0.237%
25,CC(C)CC(=O)NC(=S)Nc1ccc(Cl)cn1,inactive: -0.717%

row,Compound,activation
1,On1ccccc1=S,inactive: 0.091%
2,COc1cccc(/C=N/Nc2nc(Nc3ccccc3)nc(-n3nc(C)cc3C)n2)c1O,inactive: -0.263%
3,CCNC(=S)N/N=C(\C)c1ccco1,inactive: -2.33%
4,CC1(C)CC(=O)C2=C(C1)Nc1cc(C(=O)c3ccccc3)ccc1NC2c1ccccn1 (stereo not given),inactive: -0.252%
5,Cc1ccc(OCC(=O)N/N=C/C=C/c2ccco2)cc1,inactive: -2.15%
6,N#CC(C(=S)Nc1ccccc1)c1nc2ccccc2[nH]1 (stereo not given),inactive: -1.77%
7,Cc1ccc(C(=O)NCC(=O)OCc2csc(-c3ccccc3)n2)cc1,inactive: -3.26%
8,O=S1(=O)Nc2c(ccc3cccnc23)-c2ccccc21,inactive: -3.15%
9,COc1ccc(C=C(c2nc3ccccc3s2)c2nc3ccccc3s2)cc1O,inactive: 5.64%
10,S=c1[nH]c2cc(-c3ccccc3)ccc2o1,inactive: -4.88%
11,O=C(CSCC(=O)Nc1cccc([N+](=O)[O-])c1)Nc1ccccc1,inactive: -2.02%
12,Cc1ccc(NC(=S)NNC(C)(C)C)cc1,inactive: -6.52%
13,C=CCNC(=S)N/N=C/c1ccc(C(C)(C)C)cc1,inactive: -5.18%
14,S=c1nc(-c2ccccc2)[nH]c2ccc(Br)cc12,inactive: -3.2%
15,CCNc1cc(S(=O)(=O)C(F)(F)F)ccc1N,inactive: -1.95%
16,COc1ccc(NC(=S)N2CCNC(=O)C2CC(=O)Nc2cccc(Cl)c2C)cc1 (stereo not given),inactive: -1.3%
17,CC(=O)N(c1ccccc1)C(C)c1nc(C#N)c(C#N)nc1C (stereo not given),inactive: -1.35%
18,Cc1cccnc1NC(=S)NC(=O)c1cncc(Br)c1,inactive: -1.51%
19,Cc1ccc(NC(=O)c2ccc3c(c2)C(=O)N(CC2CCCO2)C3=O)cc1C (stereo not given),inactive: -0.599%
20,Cc1cc(C)cc(NC(=O)CC2NCCNC2=O)c1 (stereo not given),inactive: -2.19%
21,CC1CC(C)(C)n2c(O)c(N=NC(N)=S)c3cccc1c32 (stereo not given),inactive: -1.18%
22,C/C(=N\NC(=S)NC(C)C)c1ccc(Cl)s1,inactive: -8.25%
23,CCOc1cccc(CNc2ccc(O)cc2)c1OCc1ccc(Cl)cc1,inactive: 0.122%
24,CCN(CC)C(=O)[C@H]1C[C@H](CC(=O)NCc2cccc(C(F)(F)F)c2)C(=O)N2CCc3c([nH]c4cc(-c5ccco5)ccc34)[C@]12C,inactive: 0.311%
25,O=C(CSc1nnc(Nc2ccccc2)s1)Nc1cccc(S(=O)(=O)N2CCCCC2)c1,inactive: -0.135%
